Assay results: patent publication US20140142343A1, “Novel Fragrance Compounds” (Givaudan Nederland Services B.V., priority 2006, published 2014)

Key:
[1] = Odour description of the prepared compound; details: odour description of the isolated product
[2] = Performance in candle wax: odour intensity in cold wax and burn mode; details: candle wax dosed at 1.0%, ingredients as 10% dilutions in benzyl benzoate; for COLD WAX MODE: before burning; for BURN MODE: burned for one hour
[3] = Performance on hair: muguet odour intensity from Pantene shampoo on hair switches; details: scale 0 to 10, Lily aldehyde=5, Pantene shampoo dosed at 0.2%, Compound 1 and Florhydral as 10% DPG; for FOAMING INTENSITY MEAN: after 30 s massage into hair; for DRY INTENSITY MEAN: hair line dried 3 hours; for DAMP INTENSITY MEAN: rinsed, towel dried hair
[4] = Addition of the compound to perfuming compositions
[5] = Malodour counteracting, small-scale tabletop method with trained sensory panel; details: 1% w/w in DPG; bathroom malodour at 0.5%

| SMILES | Odour [1] | COLD WAX MODE [2] | BURN MODE [2] | further results |
| --- | --- | --- | --- | --- |
| CC1CCCC(C(C)CC=O)C1 (stereo not shown) [Example 3, 3-(3-methylcyclohexyl)butanal] | aldehydic, green, muguet |  |  |  |
| CC(C)c1cccc(C(C)CC=O)c1 (stereo not shown) [FLORHYDRAL, 3-(3-isopropylphenyl)butanal] |  | Not as strong as Compound 1. Still a | Not as strong as Compound 1. | FOAMING INTENSITY MEAN [3]: 5; DRY INTENSITY MEAN [3]: 4; DAMP INTENSITY MEAN [3]: 6 |
| CC(C=O)Cc1ccc(C(C)(C)C)cc1 (stereo not shown) [LILY ALDEHYDE] |  | Faint odour character, | Not strong. Does not compare | FOAMING INTENSITY MEAN [3]: 5; DRY INTENSITY MEAN [3]: 5; DAMP INTENSITY MEAN [3]: 5 |
| CC(C)(C)C1CCCC(CCC=O)C1 (stereo not shown) [Compound 1, 3-(3-tert-butylcyclohexyl)propanal] | aldehydic, floral, muguet, green | Very strong in cold wax, excellent | VERY strong, excellent performer | effect on perfuming composition for water based gel air freshener ([4]; 0.25% of compound instead of equivalent amount of Dihydro Myrcenol): enhanced the perceived odour intensity of the fragrance; effect on perfuming composition for general purpose cleaner ([4]; 0.50% of compound instead of equivalent amount of Linalol): enhanced the perceived odour intensity of the fragrance; FOAMING INTENSITY MEAN [3]: 9; DRY INTENSITY MEAN [3]: 8; DAMP INTENSITY MEAN [3]: 8 |
| CC(C)C1CCCC(C(C)C(C)C=O)C1 (stereo not shown) [Example 5, 3-(3-isopropylcyclohexyl)-2-methylbutanal] | green, violet, apple, cucumber |  |  |  |
| CC(CC=O)C1CCCC(C(C)(C)C)C1 (stereo not shown) [Example 6, 3-(3-tert-butylcyclohexyl)butanal] | aldehydic, floral, herbal, watery |  |  |  |
| CC(C)(C)C1CCCC(CCC=O)C1 (single isomer, unassigned; isomer 3) [Pure CIS-Isomer, 3-(3-tert-butylcyclohexyl)propanal] | aldehydic, floral, muguet, watery |  |  |  |
| CC(C)C1CCCC(C(C)CC=O)C1 (stereo not shown) [Compound 2, 3-(3-isopropylcyclohexyl)butanal] | green, violet, orris, aldehydic |  |  |  |
| CC1CCCC(CC(C)(C)C=O)C1 (stereo not shown) [Example 8, 2,2-dimethyl-3-(3-methylcyclohexyl)propanal] | marine, watery |  |  |  |
| CC(C=O)CC1CCCC(C)C1 (stereo not shown) [Compound 3, 2-methyl-3-(3-methylcyclohexyl)propanal] | floral, citrus, cuminic, nitrile |  |  | perceived intensity of malodour [5]: significantly reduced the perceived intensity of malodour |
| CC1CCCC(CCC=O)C1 (stereo not shown) [Compound 4, 3-(3-methylcyclohexyl)propanal] | aldehydic, fatty, nitrile |  |  | perceived intensity of malodour [5]: significantly reduced the perceived intensity of malodour |
| CC(C)(O)CCCC1=CCC(C=O)CC1 (stereo not shown) [LYRAL] |  | Faint odour character in cold mode. | Very weak in burn. |  |
| CC(C)(C)C1CCCC(CCC=O)C1 (single isomer, unassigned; isomer 3) [Pure TRANS-Isomer, 3-(3-tert-butylcyclohexyl)propanal] | aldehydic, floral, metallic |  |  |  |
